At least one structure is not confirmed: it was looked up by name or label, or the drawing left a doubt.
Key:
mouse tissues = assay: Change of biological age (tAge), lifespan-adjusted multi-tissue transcriptomic clock applied to RNAseq datasets of treated mice (ClockBase); type: in vivo; conditions: statistically significant effect on tAge, FIG. 6A
Description: Preprocessing of the data prior to applying the clock included filtering of low-expressed genes using soft threshold (genes with less than 5 reads in more than 80% of samples were removed), mapping of gene IDs to the mouse Entrez IDs, RLE normalization (for RNA-seq data), log-transformation, scaling and ranking/YuGene transformation (optionally, for the corresponding clock models). Missing values corresponding to the clock genes not detected in the data were imputed with the average values precalculated during the training of the clock model.
Preprocessed gene expression profiles were used as an input for the clock, and tAges were returned by the model as an output. Differences between tAges of control and treated groups were assessed using linear regression model (for OSKM reprogramming datasets) and independent t-tests (for other applications). When multiple comparisons were assessed, obtained p-values were adjusted with Benjamini-Hochberg method.
To discover candidate interventions that slow down biological aging and extend mammalian lifespan and healthspan, we utilized ClockBase^25 and processed 1,349 publicly available RNAseq datasets corresponding to mouse tissues exposed to various pharmacological, dietary and genetic interventions. […]

young UM-HET3 male mice = assay: Transcriptomic clock of expected maximum lifespan applied to liver and kidney of mice given compounds for 1 month; type: in vivo, mouse; conditions: 1 month treatment, data pooled across tissues, adjusted p-value <0.05, FIG. 6E
Description: To examine if longevity of rodents can be predicted based on gene expression data, we used 1,030 liver samples of mice and rats with known maximum lifespan to construct transcriptomic clock of expected lifespan.
To test if the constructed clock can be used to identify new longevity interventions, we applied it to the liver and kidney samples obtained from young UM-HET3 male mice subjected to 25 different compounds for 1 month together with age-matched controls. These compounds were chosen using a CMAP platform^30 and gene expression signatures of longevity identified in our previous studies^31.

[1] = test system: 25-month-old C57BL/6JNia mice; assay: Survival study of old mice with compound added to the diet; type: in vivo, mouse; conditions: compound added to diet from 25 months of age; log-rank p-value <0.05; FIGS. 6F-H

Row | Structure (SMILES) | effect on biological age (tAge) versus age-matched control mice (mouse tissues) | predicted effect on expected (maximum) lifespan according to the transcriptomic longevity clock (young UM-HET3 male mice) | lifespan of old male mice (survival) [1]
1 | CO[C@H]1C[C@@H]2CC[C@@H](C)[C@@](O)(O2)C(=O)C(=O)N2CCCC[C@H]2C(=O)O[C@H]([C@H](C)C[C@@H]2CC[C@@H](O)[C@H](OC)C2)CC(=O)[C@H](C)/C=C(\C)[C@@H](O)[C@@H](OC)C(=O)[C@H](C)C[C@H](C)/C=C/C=C/C=C/1C [rapamycin] | decrease in biological age |  | 
2 | Cn1cnc2c(F)c(Nc3ccc(Br)cc3Cl)c(C(=O)NOCCO)cc21 [selumetinib] |  | predicted to be beneficial for mouse longevity | significantly extended lifespan
